# Measurements reported in PubChem BioAssay AID1224830 (NIAID, 2016).
# Aim: 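Regulators of TLR4 signalling towards TNF-alpha in macrophage-like cells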 (primary screen)
# Cell system: human THP-1 monocytic leukaemia cells, TNF dual-luciferase reporter clone, PMA-differentiated to macrophage-like cells
# Reagent: siRNA pool against human genes, 50 nM
# Duration: LPS for 4 h, given about 3 days after siRNA transfection
# Treatment: bacterial LPS (TLR4 ligand), 10 ng/ml
# Measurement: 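Ratio of firefly to renilla light, scaled to the plate median and expressed as a robust z-score per replicate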
# Scale: TNF reporter robust z-score: higher = stronger TNF reporter response to LPS
# Active means: 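a well is active when its z-score exceeds 2.8 or falls below -1.5; control wells carry no call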
# This is a random part of about 18,000 reagents. In the full data, about 2,900 (16%) got an active call. 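Calls are made per well; low scores hint the gene aids the LPS response, high scores that it dampens it.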 Repeated entries: four replicate wells of each siRNA pool.
Target gene,TNF reporter robust z-score,activity call
CAMKMT (calmodulin-lysine N-methyltransferase),,inactive
"TMEM129 (transmembrane protein 129, E3 ubiquitin ligase)",0.18,inactive
"TMEM129 (transmembrane protein 129, E3 ubiquitin ligase)",0.3,inactive
"TMEM129 (transmembrane protein 129, E3 ubiquitin ligase)",0.68,inactive
"TMEM129 (transmembrane protein 129, E3 ubiquitin ligase)",-1.12,inactive
RBM8A (RNA binding motif protein 8A),-1.58,active
RBM8A (RNA binding motif protein 8A),-0.83,inactive
RBM8A (RNA binding motif protein 8A),-1.42,inactive
RBM8A (RNA binding motif protein 8A),-1.64,active
CPPED1 (calcineurin like phosphoesterase domain containing 1),2.23,inactive
CPPED1 (calcineurin like phosphoesterase domain containing 1),2.22,inactive
CPPED1 (calcineurin like phosphoesterase domain containing 1),2.41,inactive
CPPED1 (calcineurin like phosphoesterase domain containing 1),1.94,inactive
JAGN1 (jagunal vesicle mediated transporter 1),1.6,inactive
JAGN1 (jagunal vesicle mediated transporter 1),0.42,inactive
JAGN1 (jagunal vesicle mediated transporter 1),0.3,inactive
JAGN1 (jagunal vesicle mediated transporter 1),1.29,inactive
H3C3 (H3 clustered histone 3),0.67,inactive
H3C3 (H3 clustered histone 3),0.63,inactive
H3C3 (H3 clustered histone 3),0.39,inactive
H3C3 (H3 clustered histone 3),0.58,inactive
ITGA3 (integrin subunit alpha 3),1.19,inactive
ITGA3 (integrin subunit alpha 3),0.34,inactive
ITGA3 (integrin subunit alpha 3),0.85,inactive
ITGA3 (integrin subunit alpha 3),0.74,inactive
IFIT5 (interferon induced protein with tetratricopeptide repeats 5),-0.34,inactive
IFIT5 (interferon induced protein with tetratricopeptide repeats 5),0.03,inactive
IFIT5 (interferon induced protein with tetratricopeptide repeats 5),-1.07,inactive
IFIT5 (interferon induced protein with tetratricopeptide repeats 5),-0.63,inactive
WASHC3 (WASH complex subunit 3),0.1,inactive
WASHC3 (WASH complex subunit 3),-0.35,inactive
WASHC3 (WASH complex subunit 3),0.5,inactive
WASHC3 (WASH complex subunit 3),0.35,inactive
NCMAP (non-compact myelin associated protein),-0.47,inactive
NCMAP (non-compact myelin associated protein),-0.88,inactive
NCMAP (non-compact myelin associated protein),-0.26,inactive
NCMAP (non-compact myelin associated protein),0.49,inactive
AGPS (alkylglycerone phosphate synthase),3,active
AGPS (alkylglycerone phosphate synthase),1.06,inactive
AGPS (alkylglycerone phosphate synthase),1.39,inactive
AGPS (alkylglycerone phosphate synthase),3.73,active
TNFSF13 (TNF superfamily member 13),-0.02,inactive
TNFSF13 (TNF superfamily member 13),0.62,inactive
TNFSF13 (TNF superfamily member 13),1.25,inactive
TNFSF13 (TNF superfamily member 13),0.66,inactive
GRIN2A (glutamate ionotropic receptor NMDA type subunit 2A),-0.93,inactive
GRIN2A (glutamate ionotropic receptor NMDA type subunit 2A),-0.23,inactive
GRIN2A (glutamate ionotropic receptor NMDA type subunit 2A),0.3,inactive
GRIN2A (glutamate ionotropic receptor NMDA type subunit 2A),-0.5,inactive
EPB41 (erythrocyte membrane protein band 4.1),4.74,active
EPB41 (erythrocyte membrane protein band 4.1),-1.29,inactive
EPB41 (erythrocyte membrane protein band 4.1),-0.23,inactive
EPB41 (erythrocyte membrane protein band 4.1),0.69,inactive
C10orf67 (chromosome 10 open reading frame 67),-1.11,inactive
C10orf67 (chromosome 10 open reading frame 67),-0.36,inactive
C10orf67 (chromosome 10 open reading frame 67),-1.44,inactive
C10orf67 (chromosome 10 open reading frame 67),0.54,inactive
DHRS4L1 (dehydrogenase/reductase 4 like 1 (pseudogene)),0.41,inactive
DHRS4L1 (dehydrogenase/reductase 4 like 1 (pseudogene)),-0.12,inactive
DHRS4L1 (dehydrogenase/reductase 4 like 1 (pseudogene)),0.48,inactive
DHRS4L1 (dehydrogenase/reductase 4 like 1 (pseudogene)),1.8,inactive
WNT2B (Wnt family member 2B),0.54,inactive
WNT2B (Wnt family member 2B),0.93,inactive
WNT2B (Wnt family member 2B),-0.57,inactive
WNT2B (Wnt family member 2B),0.37,inactive
"RBPMS2 (RNA binding protein, mRNA processing factor 2)",0.55,inactive
"RBPMS2 (RNA binding protein, mRNA processing factor 2)",0.33,inactive
"RBPMS2 (RNA binding protein, mRNA processing factor 2)",0.54,inactive
"RBPMS2 (RNA binding protein, mRNA processing factor 2)",0.1,inactive
CCDC47 (coiled-coil domain containing 47),1.02,inactive
CCDC47 (coiled-coil domain containing 47),0.57,inactive
CCDC47 (coiled-coil domain containing 47),0.96,inactive
CCDC47 (coiled-coil domain containing 47),1.6,inactive
OR52D1 (olfactory receptor family 52 subfamily D member 1),-1.03,inactive
OR52D1 (olfactory receptor family 52 subfamily D member 1),-0.12,inactive
OR52D1 (olfactory receptor family 52 subfamily D member 1),-0.4,inactive
OR52D1 (olfactory receptor family 52 subfamily D member 1),-0.47,inactive
STAU2 (staufen double-stranded RNA binding protein 2),0.48,inactive
STAU2 (staufen double-stranded RNA binding protein 2),0.67,inactive
STAU2 (staufen double-stranded RNA binding protein 2),-0.24,inactive
STAU2 (staufen double-stranded RNA binding protein 2),1.05,inactive
SCNN1B (sodium channel epithelial 1 subunit beta),-0.81,inactive
SCNN1B (sodium channel epithelial 1 subunit beta),-1.16,inactive
SCNN1B (sodium channel epithelial 1 subunit beta),-0.28,inactive
SCNN1B (sodium channel epithelial 1 subunit beta),0.98,inactive
ATP10D (ATPase phospholipid transporting 10D (putative)),2.31,inactive
ATP10D (ATPase phospholipid transporting 10D (putative)),1.65,inactive
ATP10D (ATPase phospholipid transporting 10D (putative)),0.53,inactive
ATP10D (ATPase phospholipid transporting 10D (putative)),1.82,inactive
INSR (insulin receptor),-0.04,inactive
INSR (insulin receptor),0.31,inactive
INSR (insulin receptor),-0.4,inactive
INSR (insulin receptor),0.45,inactive
GIPC1 (GIPC PDZ domain containing family member 1),-0.69,inactive
GIPC1 (GIPC PDZ domain containing family member 1),0.05,inactive
GIPC1 (GIPC PDZ domain containing family member 1),-0.34,inactive
GIPC1 (GIPC PDZ domain containing family member 1),-0.37,inactive
TCEAL8 (transcription elongation factor A like 8),2.52,inactive
TCEAL8 (transcription elongation factor A like 8),1.51,inactive
TCEAL8 (transcription elongation factor A like 8),1.35,inactive
TCEAL8 (transcription elongation factor A like 8),2.96,active
TRPS1 (transcriptional repressor GATA binding 1),-1.51,active
TRPS1 (transcriptional repressor GATA binding 1),-1.37,inactive
TRPS1 (transcriptional repressor GATA binding 1),-1.02,inactive
TRPS1 (transcriptional repressor GATA binding 1),-0.78,inactive
KRT13 (keratin 13),0.06,inactive
KRT13 (keratin 13),0.58,inactive
KRT13 (keratin 13),0.93,inactive
MYL12A (myosin light chain 12A),-0.32,inactive
MYL12A (myosin light chain 12A),-0.14,inactive
MYL12A (myosin light chain 12A),1.23,inactive
MYL12A (myosin light chain 12A),1.73,inactive
TRAPPC14 (trafficking protein particle complex subunit 14),0.02,inactive
TRAPPC14 (trafficking protein particle complex subunit 14),0.37,inactive
TRAPPC14 (trafficking protein particle complex subunit 14),0.12,inactive
TRAPPC14 (trafficking protein particle complex subunit 14),0.28,inactive
BECN1 (beclin 1),1.66,inactive
BECN1 (beclin 1),1.86,inactive
BECN1 (beclin 1),3.44,active
BECN1 (beclin 1),3.25,active
OR6C65 (olfactory receptor family 6 subfamily C member 65),0.76,inactive
OR6C65 (olfactory receptor family 6 subfamily C member 65),1.04,inactive
OR6C65 (olfactory receptor family 6 subfamily C member 65),-0.64,inactive
OR6C65 (olfactory receptor family 6 subfamily C member 65),0.78,inactive
LRRTM1 (leucine rich repeat transmembrane neuronal 1),0.69,inactive
LRRTM1 (leucine rich repeat transmembrane neuronal 1),1.82,inactive
LRRTM1 (leucine rich repeat transmembrane neuronal 1),1.29,inactive
LRRTM1 (leucine rich repeat transmembrane neuronal 1),1.81,inactive
PIGR (polymeric immunoglobulin receptor),-0.88,inactive
PIGR (polymeric immunoglobulin receptor),-0.55,inactive
PIGR (polymeric immunoglobulin receptor),-0.47,inactive
PIGR (polymeric immunoglobulin receptor),-0.62,inactive
PRR15L (proline rich 15 like),1.22,inactive
PRR15L (proline rich 15 like),-0.35,inactive
PRR15L (proline rich 15 like),-0.48,inactive
PRR15L (proline rich 15 like),-0.86,inactive
CFAP20 (cilia and flagella associated protein 20),-0.54,inactive
CFAP20 (cilia and flagella associated protein 20),0.04,inactive
CFAP20 (cilia and flagella associated protein 20),-1.04,inactive
CFAP20 (cilia and flagella associated protein 20),-0.41,inactive
